# Library screening results

Data taken from ChEMBL document CHEMBL3988442, “University of Dundee, Small-Polar-MMV Screening Library” (2021).

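Whole-cell assay for inhibitors of Mycobacterium tuberculosis growth, labelled Cornell in the record; the read-out is not stated. The concentration is filed as 10 mM, unlikely as a test dose, so the dose is not known. Higher means stronger inhibition (inferred from two other growth screens of the library). Size under these conditions: about 53,000 compounds, about 900 of them at 50% or above in at least one test.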

The filed quantity is “Percent Effect” (%). How 0% and 100% were set is not recorded. Most values in the screen are low, and negative values occur. Compounds were drawn at random from those tested, without regard to their results.

structure,effect
CN(C)CCOCC1CN(C(=O)c2cccnc2)Cc2ccnn2C1 (configuration not stated),-14.95
CCC(CNC(=O)c1ccc(F)cc1F)N1CCc2ccccc2C1 (configuration not stated),-10.14
CN(Cc1noc2c1CCCC2)C(=O)Nc1ccc2oc(=O)n(C)c2c1,-31.81
CN(Cc1nnc(C2CC2)n1C)C1CCN(CCS(C)(=O)=O)C1 (configuration not stated),-3.739
COc1ccc(NC(=O)c2ccc(-n3ncc(C#N)c3N)cc2)cn1,30.34
[H][C@]12CC[C@]([H])(C1)[C@H](NC(=O)COc1cccc(NC(=O)CC)c1)C2,8.695
CC(C)c1cc(N[C@@H](CO)C(N)=O)n2nccc2n1,-15.56
COCC1CN(Cc2ccncc2)Cc2nn(C)cc21 (configuration not stated),-95.72
COC(=O)C1CN(Cc2ccccc2C(C)(C)C#N)CCO1 (configuration not stated),5.747
CCOC(=O)N1CCN(CC(=O)Nc2nnc(C)s2)CC1,-10.64
CC(C)(C)N1CCN(C(=O)c2cccnc2-n2cncn2)CC1,-14.52
CN1C(=O)[C@H](OC(N)=O)[C@@H](C(=O)Nc2ccccc2)C12CCNCC2,-56.88
COCCN1CCC(NC(=O)C2(c3cc(C)cc(C)c3)CC2)CC1,20.67
Cc1noc(C)c1C(=O)N1CCC2(CC1)CC(Oc1ccccc1)CO2 (configuration not stated),9.911
O=C(O)C(F)(F)F.[H][C@@]12CCN(C3CCOCC3)C[C@]1([H])[C@@H](CNC(=O)c1cnn(C)c1)OC2,-20.72
O=C(O)C(F)(F)F.[H][C@@]12C[C@H](C(=O)NC)CN(Cc3ccc(C)o3)[C@]1([H])CCO2,20.59
Cn1cccc1C(=O)N1CCC2(CC1)CN(c1ccccn1)CCO2.O=C(O)C(F)(F)F,-9.983
CC(C)(C)CC(NC(=O)c1nc(=O)[nH][nH]1)c1ccc(F)cc1 (configuration not stated),34.33
O=C(O)C(F)(F)F.[H][C@@]12CCN(Cc3ccc4c(c3)OCO4)C[C@]1(C(=O)N(C)C)CCO2,8.903
Cc1nc(C2(NCC(=O)NC(=O)Nc3ccccc3)CCCCC2)no1,27.95
Cn1cc(CN2CCOC[C@H]2c2nc(C(C)(C)C)co2)c2ccccc21,-0.1185
Cc1cnn(CC2CN(Cc3nc4ccccc4s3)CCO2)c1 (configuration not stated),5.643
CC1(Cc2cccnc2)NCCc2[nH]cnc21 (configuration not stated),-40.81
O=C(NCCNc1ncccn1)c1ccc(-c2ccco2)[nH]c1=O,-2.027
CC(C)N1CCCCC1c1nc(N(C)C)ncc1I.Cl (configuration not stated),-35
CCn1c(CNC(=O)Nc2nc(C)c(C)o2)nc2ccccc21,-4.322
Fc1ccccc1CN1CCC[C@H](Cn2nnc(-c3cccs3)n2)C1,35.5
CN(C)c1nccc(C2CCCCN2Cc2cnn3cccnc23)n1 (configuration not stated),2.705
O=C(O)C(F)(F)F.O=C(O)C(F)(F)F.O=C(O)C(F)(F)F.[H][C@@]12CO[C@@H](CN3CCN(C)CC3)[C@]1([H])CCN(CCc1ccccc1)C2,14.56
COc1ccc(C2(C(=O)NCc3c(C)ncc4c3CCNC4)CC2)cc1,3.535
CCOC(=O)C(C)Nc1ccc(CCN2CCOCC2)cc1 (configuration not stated),-17.66
CCOC1CC2(CCN(C(=O)COC)CC2)c2cc(F)ccc21 (configuration not stated),15.29
Cn1nc(-c2cccc(Cl)c2)c(Br)c1C(=O)O,24.18
COCCn1ccc2cc(NC(C)=O)ccc21,1.786
NC(=O)CN(Cc1cccc(Oc2ccccc2)c1)C(=O)C1CC1,-83.74
COc1nccnc1N1CCCC2(C1)C(=O)N(C)c1ccccc12 (configuration not stated),-4.539
Cc1noc(CNC(=O)N2CCN(c3nc(C)c(C)s3)CC2)n1,22.28
CCN(Cc1cnn(C)c1)S(=O)(=O)N1CCCC1c1ccco1 (configuration not stated),3.837
Cc1cc(C)n2c(CCCNS(=O)(=O)c3ccccc3)nnc2n1,8.748
CCn1c(C)cc(C(=O)N2CCc3nnc(N)cc3C2)c1C,-25.1
CSCCN(C)Cc1ccc(F)cc1C#N,-17.46
Cc1cc2nc(SCC(=O)N3CCOCC3)n(CC(C)C)c(=O)c2[nH]1,-1.087
CN(Cc1ccc(F)cc1)CC1(O)CCN(C(=O)c2ccsc2)C1 (configuration not stated),-17.86
CCN(CC(C)C#N)C(=O)CNc1cc(Cl)ccc1C(N)=O (configuration not stated),-0.05585
CCn1cc(C2=CCN(CCCOc3ccccc3)CC2)cn1,12.91
[H][C@@]12CCN(c3ncccn3)C[C@@]1([H])[C@H](C(=O)N(C)C)CCO2,-14.02
CCCC(NC(=O)c1ccc(OC)cc1C)c1nnn[nH]1 (configuration not stated),12.3
N#Cc1ccc(OCCN2CCc3c(ncn3C3CC3)C2)cc1,-15.6
COc1ccc(CCNC(=O)C2CCCOC2)c(Cl)c1 (configuration not stated),-3.95
COC(=O)c1ccc(N2CCC(C(O)c3ccccc3)CC2)nn1 (configuration not stated),106
CN1CCN(C(=O)c2cncc(CC3CCCN(C)C3)c2)CC1 (configuration not stated),-1.555
Fc1cccc(C2(CNC3CCCNC3)CCOCC2)c1 (configuration not stated),23.52
Cc1nc(N(C)C2CCCCC2)ncc1C(C)NC(=O)c1cccnc1 (configuration not stated),25.23

7 of the entries, repeated:

* Cn1cc(CN2CCOC[C@H]2c2nc(C(C)(C)C)co2)c2ccccc21 : -0.1185%
* CC(C)(C)N1CCN(C(=O)c2cccnc2-n2cncn2)CC1 : -14.52%
* CN(Cc1nnc(C2CC2)n1C)C1CCN(CCS(C)(=O)=O)C1 (configuration not stated) : -3.739%
* COc1ccc(NC(=O)c2ccc(-n3ncc(C#N)c3N)cc2)cn1 : 30.34%
* CCn1c(C)cc(C(=O)N2CCc3nnc(N)cc3C2)c1C : -25.1%
* Cc1noc(CNC(=O)N2CCN(c3nc(C)c(C)s3)CC2)n1 : 22.28%
* O=C(O)C(F)(F)F.O=C(O)C(F)(F)F.O=C(O)C(F)(F)F.[H][C@@]12CO[C@@H](CN3CCN(C)CC3)[C@]1([H])CCN(CCc1ccccc1)C2 : 14.56%